Assay results reported in patent US20180087118A1.
Results are given in words; binding and its absence hold for the method and conditions named. A result given as binding can be weak or reduced; the word gives no strength.

Biological target: T1, H-TKQTARK(Me3)STGGKAPR-OH (TR-15, H3 3-17 K9me3 peptide)
T1 sequence (peptide, K(Me3), trimethyl-lysine at histone H3 K9 (7th residue of the peptide)): TKQTARKSTGGKAPR
Assay: co-crystal structure, 1.87 Å

In the case of “Human KDM4B 1-348 (His6-tagged, expressed in E. coli from pET28a) (enzyme)”, the binding is reported as “binds”.
